A: 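Whole-cell assay for inhibitors of Mycobacterium tuberculosis growth, labelled Cornell in the record; the read-out is not stated. The concentration is filed as 10 mM, unlikely as a test dose, so the dose is not known. Higher means stronger inhibition (inferred from two other growth screens of the library). About 53,000 compounds were tested under these conditions; 1.7% (about 900) showed 50% or more at least once.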
B: 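Assay on Mycobacterium tuberculosis, filed only as a heat shock assay from Cornell; the read-out is not stated. The concentration is filed as 10 mM, unlikely as a test dose, so the dose is not known. Direction is inferred from retests: higher values go with stronger inhibition. Size under these conditions: about 69,000 compounds, about 930 of them at 50% or above in at least one test.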

Values are the deposited “Percent Effect”, in %.
How 0% and 100% were set is not recorded. Most values in the screen are low, and negative values occur.
This is an unselected part of the compounds tested.
A dash means the value is not listed here; it may have been measured.

| # | SMILES | A | B |
|---|---|---|---|
| 1 | `CCc1ccc(C(=O)N2CCCC(c3nn[nH]n3)C2)cc1` (stereo unspecified) | -40.44% | 5.641% |
| 2 | `CCn1ncc2c1C(COC)N(C(=O)c1cscn1)CC2.O=C(O)C(F)(F)F` (stereo unspecified) | -13.27% | -5.863% |
| 3 | `CCNC(=O)c1ccc2ccc(N(CC)CC)n2c1` | 32.67% | 26.47% |
| 4 | `CC(CNC(=O)c1ccc(Cl)cc1I)N1CCCC1` (stereo unspecified) | - | 13.81% |
| 5 | `CCC(=O)N1CCCc2c(cnn2C)C1` | -22.18% | -14.3% |
| 6 | `COc1cc(CN(C)CCc2ccncc2)c(SC)cc1OC` | - | 8.921% |
| 7 | `CC(C)OCc1nn(C)c2c1CN(Cc1cccs1)CC2.O=CO` | -0.3268% | 3.631% |
| 8 | `CC(C)C(=O)N1CCN(S(C)(=O)=O)CC2(CC(=O)N(C)C2)C1` (stereo unspecified) | -16.6% | -22.07% |
| 9 | `CNC(=O)CN1CCCC1c1ccccc1Br` (stereo unspecified) | 31.53% | -10.94% |
| 10 | `Cc1ccc(-c2noc(CN3CCn4c(nnc4C4CC4)C3)n2)cc1` | - | 22.18% |
| 11 | `O=C(O)CCc1ccc(S(=O)(=O)Nc2cnn(CC3CC3)c2)cc1` | 7.634% | -1.357% |
| 12 | `CSCCC(=O)N1CCC(c2nccn2CCN(C)C)CC1` | 17.88% | -12.64% |
| 13 | `c1ccc(C(CC2CN(Cc3c[nH]cn3)CCO2)c2ccccc2)cc1` (stereo unspecified) | - | -3.646% |
| 14 | `Cc1cc(C)cc(C2(C(=O)NCC3CCN(CC(F)(F)F)C3)CC2)c1` (stereo unspecified) | 19.35% | -9.54% |
| 15 | `Cc1nc(COC[C@H]2CCC[C@]23CN(CC2CC2)CCO3)cs1` | -43.09% | -30.56% |
| 16 | `CC(=O)N1CCN(c2cc(C)ncn2)CC(CO)C1` (stereo unspecified) | 21.65% | 2.573% |
| 17 | `CCOc1ccccc1C(=O)Nc1cccc(C[S+](C)[O-])c1C` (stereo unspecified) | -12.07% | -2.993% |
| 18 | `CN(Cc1ccccc1)C(=O)Cn1nc(N2CCOCC2)ccc1=O` | 31.82% | 14.22% |
| 19 | `CS(=O)(=O)N1CCn2c(C(=O)N3CCOCC3)cnc2C1` | 25.57% | -26.57% |
| 20 | `O=C(O)C(F)(F)F.[H][C@@]12CN(Cc3ccncc3)CC[C@]1([H])CN(c1ncccn1)C2` | -6.881% | 45.47% |
| 21 | `Cc1nn(C)c(C)c1CCC(=O)Nc1cn(C)c(=O)n(C)c1=O` | - | 5.191% |
| 22 | `O=C(O)C(F)(F)F.O=C(O)C(F)(F)F.O=C(O)C(F)(F)F.[H][C@@]12CN(Cc3cccnc3)C[C@]1([H])[C@H](OC)CCN2Cc1cnn(C)c1` | 14.42% | -22.74% |
| 23 | `O=S(=O)(NCC1CCOC1)N1CCc2ccccc2C1` (stereo unspecified) | 25.26% | -3.979% |
| 24 | `CN1CCN([C@@H]2CN(C(=O)c3cc4cccc(F)c4[nH]3)C[C@H]2O)CC1` | 38.63% | -11.45% |
| 25 | `CN(Cc1ccncc1)C1COC2(CCN(Cc3ccco3)CC2)C1.O=C(O)C(F)(F)F.O=C(O)C(F)(F)F.O=C(O)C(F)(F)F` (stereo unspecified) | -41.32% | -17.76% |
| 26 | `CN(Cc1cnn(C)c1)C(=O)NC1CCC(O)CC1` (stereo unspecified) | -9.997% | 4.804% |
| 27 | `O=C1CNc2ncnc(Nc3cnn(Cc4ccc(F)cc4)c3)c2N1` | 2.536% | 36.91% |
| 28 | `CSc1nc(N)c2c(n1)N=C1COC(O)=C1C2c1cccc(O)c1` (stereo unspecified) | -6.388% | 4.116% |
| 29 | `COc1ccc(C[C@H]2CN(C(=O)c3ncccn3)CC[C@@H]2OC)cc1` | 17.58% | 10.84% |
| 30 | `O=C(NCc1nncn1C1CC1)C1(c2ccc(F)cc2)CCOCC1` | 28.48% | -20.14% |
| 31 | `CN(C)Cc1nnc(C2CCN(c3ncccn3)CC2)n1C1CC1` | -4.032% | -11.12% |
| 32 | `Cc1ccc(C(=O)N2CCc3ncc(Cn4cccn4)n3CC2)cn1` | 13.43% | -17.34% |
| 33 | `Cc1cccc(NC(=O)NC2CCC3(C2)OCCO3)c1Cl` (stereo unspecified) | 24.64% | -9.496% |
| 34 | `Cc1csc(C2(NCCC(=O)N3CCOCC3)CCCC2)n1` | -22.14% | -12.66% |
| 35 | `CC(C)n1ccnc1C1CCN(Cc2ccc(C(F)(F)F)c(F)c2)CC1` | -7.984% | -5.747% |
| 36 | `COc1cccc(CN2CCCC2c2ccc[nH]2)c1` (stereo unspecified) | - | -7.682% |
| 37 | `Cc1nn(C)c(C)c1C1COCCN1C(=O)Cc1cccc(F)c1` (stereo unspecified) | -7.488% | -13.03% |
| 38 | `CCC(=O)Nc1nnc(CCOc2cccc(OC)c2)s1` | - | 1.132% |
| 39 | `CCc1nnc(Nc2cc(C)nc(C3CN(C(=O)C(C)C)CCO3)c2)s1` (stereo unspecified) | 1.783% | -7.414% |
| 40 | `c1cnn(CCNCc2cnc(N3CCCC3)nc2)c1` | -9.282% | -2.589% |
| 41 | `O=C(O)C(F)(F)F.[H][C@@]12CCN(C3CCOCC3)C[C@]1([H])O[C@@H](C(=O)N1CCOCC1)C2` | 0.7771% | -2.309% |
| 42 | `O=C(CCc1ccccc1)N1CCCCC1Cn1cccn1` (stereo unspecified) | - | -7.424% |
| 43 | `CC1CCC(O)(CSc2nnnn2C)CC1` (stereo unspecified) | 8.037% | -12.05% |
| 44 | `CN1C(=O)C2(CCN(C(=O)c3cccnc3)CC2)c2cccc(F)c21` | 8.537% | -16.17% |
| 45 | `CN(Cc1nc(C(F)(F)F)cs1)C(=O)CCc1ccccn1` | 3.481% | 4.273% |
| 46 | `CCCc1nc(NCCCOCC)c2c(n1)c(C)nn2CC` | - | -7.469% |
| 47 | `OCc1cn([C@@H]2c3ccccc3C3(CCNCC3)[C@H]2O)nn1` | 25.51% | 1.97% |
| 48 | `Cn1ccnc1CN1C[C@@H](CN2CCCCCC2)[C@@H](CO)C1` | -33.41% | -35.75% |
| 49 | `COc1cc(N2CCC(c3nccn3Cc3ccccc3)CC2)ncn1` | 27.64% | 2.969% |
| 50 | `CC(C)CN1CCC(c2nc3c([nH]2)CC(C)(C)CNC3=O)C1` (stereo unspecified) | - | 2.644% |
| 51 | `O=C(O)C(F)(F)F.[H][C@@]12C[C@@H](c3nc(C)no3)O[C@]1([H])CN(CC1CCOCC1)C2` | -22.11% | -17.25% |
| 52 | `[H][C@@]12CCN(S(C)(=O)=O)C[C@]1(COc1nccc(C)n1)CCO2` | -24.35% | -11.35% |
| 53 | `O=C(O)C(F)(F)F.[H][C@@]12CCN(c3cnccn3)C[C@]1([H])CN(C(=O)C1CCCCC1)C2` | -7.64% | 23.71% |
| 54 | `O=C(c1ccn[nH]1)N1CCCC(n2cncn2)C1` (stereo unspecified) | - | -31.48% |
| 55 | `COCC(C)(NC(=O)c1cc(Cl)c(-n2cccc2)cc1OC)C(N)=O` (stereo unspecified) | 4.427% | -12.22% |
| 56 | `COc1ccc2c(C)nc(N3CCN([C@H]4CCCC[C@@H]4O)CC3)nc2c1` | - | -32.7% |
| 57 | `CCOc1c(Cl)cccc1NS(=O)(=O)c1cc(C)c(C(=O)O)s1` | - | 15.91% |
| 58 | `[H][C@@]12CS(=O)(=O)C[C@]1([H])N(CCCc1ccccc1)CCN2CC=C(C)C` | - | 2.16% |
| 59 | `CCc1nnc(CN(CC)C(=O)C2CC(=O)N(C3CC3)C2)o1` (stereo unspecified) | 3.101% | 10.62% |

6 of the entries, repeated:

[H][C@@]12CS(=O)(=O)C[C@]1([H])N(CCCc1ccccc1)CCN2CC=C(C)C gave B: 2.16%.
CSCCC(=O)N1CCC(c2nccn2CCN(C)C)CC1 gave A: 17.88%; B: -12.64%.
Cc1nc(COC[C@H]2CCC[C@]23CN(CC2CC2)CCO3)cs1 gave A: -43.09%; B: -30.56%.
c1cnn(CCNCc2cnc(N3CCCC3)nc2)c1 gave A: -9.282%; B: -2.589%.
OCc1cn([C@@H]2c3ccccc3C3(CCNCC3)[C@H]2O)nn1 gave A: 25.51%; B: 1.97%.
O=C(O)C(F)(F)F.[H][C@@]12CN(Cc3ccncc3)CC[C@]1([H])CN(c1ncccn1)C2 gave A: -6.881%; B: 45.47%.

From ChEMBL document CHEMBL3988442, “University of Dundee, Small-Polar-MMV Screening Library” (2021).